The other results are listed elsewhere or left out.
B1: il10ra_site1_normal_mot_HHH_b1_06363_000000103_0001_21_38_H_._HHH_b1_06214_af2_0001_0000400025_0000002_0_af2pred_0001 (protein)
chain: SSSSSDEEEEEVEELLEKAKKIENPEEVYKLLVRAFSIAFHINNDELRELVEEVLQEFAQSSSSS
B2: il10ra_site1_sap_19_mot_HHH_b2_04186_af2_000000278_0001_1_19_H_._HHH_b1_07627_af2_0001_0000400015_0000002_0_0001 (protein)
chain: SSSSDKEERELIEAAIRLAEQLYEWGDDESARFHLWSAKQLAEELGDEELREEIEELEREISSSS
B3: il10ra_site1_sap_19_mot_HHH_b1_06789_af2_000000041_0001_1_20_H_._HHH_b2_05039_0001_0000300017_0000001_0_0001_af2pred_0001 (protein)
chain: SSSSDEAERRLFELFREASRLLREGNPEEAKKVTEELEELAEQLGDERAKRLVELLKRLNSSSSS
B4: il10ra_site1_sap_26_mot_0750aae41c39e4229e2ea8fa354cc919_0001_1_000000144_0001_37_51_H_._HHH_b1_04100_af2_0001_0000100003_0000001_0_0001 (protein)
chain: SSSSSDEEVRELVEFLEKWYRQDPDPKAKEFIEISLELLARDYNDPEVEEILEELREESSSSSSS
B5: il10ra_site1_normal_mot_HHH_b1_04065_000000255_0001_41_56_H_._HHH_b1_08168_0001_0000500034_0000001_0_af2pred_0001 (protein)
chain: SSSSSEEEELEELLRELEELAKEGDEEKFAQLFVEVSKLAWEARDEEVSKRLIELAVEFFSSSSS
B6: il10ra_site1_normal_mot_HHH_b2_06602_000000226_0001_1_16_H_._HHH_b1_03209_af2_0001_0000100006_0000002_0 (protein)
chain: SSSSSEEEEAFELLVQAYTLANQGDPEEAREVLEEALEVAERGNNRALVLAIEINLERLESSSSS
B7: il10ra_site1_sap_23_mot_HHH_b1_03333_000000091_0001_1_17_H_._HHH_b1_01665_af2_0001_0000100003_0000002_0_0001 (protein)
chain: SSSSSSEEEAERLVEEVREELERLDAEERWKLYREAAELLVELGNREAIEALIEAFIRASSSSSS
B8: il10ra_site1_normal_mot_HHH_b1_06912_af2_000000235_0001_1_15_H_._HHH_b1_07203_af2_0001_0000200016_0000002_0 (protein)
chain: SSSSSDEADRLYKLLREALELLANGNPEEAEEILEEVIKLAEELNNFVFVFAARHLERDISSSSS
B9: il10ra_site1_normal_mot_HHH_b1_04693_000000238_0001_19_36_H_._HHH_b1_00041_0001_0000200024_0000001_0 (protein)
chain: SSSQEAYEVVEKAIEEAIELLRNGNPEEAEKVVEEAIRIVEELGNDIARFQLETLLRLIQRSSSS
B10: il10ra_site1_sap_11_mot_5fda0655e6834f3f331eaa9f580e88ed_0001_af2_000000239_0001_36_50_H_._05650c620ad560ee7d778618fc3b96ad_0001_0001_0000700017_0000002_0_0001 (protein)
chain: DDIFRLQARLAARDPKVLRAISERAEEAKREGDEQHFKMFLRLLRLVVELYGDPLAEELLEELEK
B11: il10ra_site1_normal_mot_HHH_b1_00137_000000000_0001_1_19_H_._HHH_b2_06740_0001_0000300009_0000002_0_af2pred_dldesign_0_af2pred (protein)
chain: SSSDIQARLDFAGEVVVRLYDELGLTREQLEVLRDEALALVQAGLSDEEIRERLEALARRLASSS
B12: il10ra_site1_normal_mot_HHH_b1_06789_af2_000000041_0001_1_20_H_._HHH_b2_05724_af2_0001_0000400011_0000001_0_af2pred_0001 (protein)
chain: SSSSSSRKEFLKAAKRTAEILIKNGDPEEARRALEIAHLLAELLGDPILEEIEELLEELNSSSSS
B13: il10ra_site1_normal_mot_HHH_b2_00984_000000042_0001_1_20_H_._HHH_b2_04018_0001_0000100003_0000001_0 (protein)
chain: SSSSDEVEERVERLLEEAEELAERGDPEEANELLQEATQVALENNNAELLQLVWEVIKRLSSSSS
B14: il10ra_site1_sap_22_mot_HHH_b1_05357_000000034_0001_23_39_H_._HHH_b2_07159_0001_0000100004_0000001_0_0001_af2pred_0001 (protein)
chain: SSSSDERVKLTLRMAERLARHGARESVEFLLKAAEQIARRLGDEELEELIEEVEERVRELLSSSS
B15: il10ra_site1_sap_15_mot_HHH_b2_02303_af2_000000113_0001_43_56_H_._HHH_b1_07128_af2_0001_0000500025_0000001_0_0001_af2pred_0001 (protein)
chain: SSSSSDELERVRRLLRRVAQLLHEGNPEEAEELVREALEIAEELGNLALAFAARYLLKLISSSSS
B16: il10ra_site1_sap_23_mot_HHH_b1_08616_000000009_0001_1_19_H_._HHH_b2_04715_af2_0001_0000100004_0000001_0_0001_af2pred_0001 (protein)
chain: SSSSSSQEEQRIRALLFFAKFANNPEARRLALELAERLARELGNEELREEVERVEKELEESSSSS
B17: il10ra_site1_normal_mot_HHH_b2_08144_af2_000000046_0001_38_52_H_._HHH_b2_05514_af2_0001_0000300004_0000001_0_af2pred_0001 (protein)
chain: SSSSSSSDEARRIIELLREALQIEDPEEARELVEEAEELAEEINNRLLLLIARFLLKQLSSSSSS
B18: il10ra_site1_sap_33_mot_HHH_b1_06174_af2_000000107_0001_40_57_H_._HHH_b1_05284_0001_0000300018_0000001_0_0001 (protein)
chain: SSSSTLAQEVYELLRRAAELLDEGDKEEAEKLLEEARRLAEEAGSMLLRVQVEFLERQIENSSSS
B19: il10ra_site1_normal_mot_HHH_b2_08144_af2_000000046_0001_38_52_H_._HHH_b1_03926_af2_0001_0000100003_0000001_1_af2pred_0001 (protein)
chain: SSSSSDRERIAELLRRAAEAFADGNPEEAEELVEEALELAQERNNELLAFIAEFLLRIVRSSSSS
B20: il10ra_site1_normal_mot_HHH_b2_05548_000000224_0001_41_54_H_._HHH_b2_03931_0001_0000100013_0000001_0 (protein)
chain: SSSSSDEEELERLTKELEEALKEGDERLVAKLTTKLFDLVARTRDEEAQEVVRRAVEFLNSSSSS
B21: il10ra_site1_sap_15_mot_HHH_b2_03330_000000161_0001_1_19_H_._HHH_b1_05293_0001_0000400012_0000001_0_0001 (protein)
chain: SSSDEAYRLVEKAIKEVIELWEKGNPEEAQRLLEEVEERLEELNNIVALWAIRHLLELLRRSSSS
B22: il10ra_site1_sap_22_mot_HHH_b1_08477_000000091_0001_40_57_H_._3c52c70cb82747e000e16ffcb2ba7c63_0001_0001_0000100004_0000002_0_0001 (protein)
chain: SSSSSDVAEIAQRALRAAYQKGDEEGLQEIWRIIEAAARGEISEEEASERLEEILERLESSSSSS
B23: il10ra_site1_sap_30_mot_HHH_b1_06828_af2_000000004_0001_41_57_H_._HHH_b1_01454_0001_0000400012_0000001_0_0001 (protein)
chain: SSSSDEERVRELIEEAEELAERGNPREAARVIQEAVRIAYQAKNPELLRALWRVVKELANSSSSS
B24: il10ra_site1_sap_21_mot_HHH_b2_00230_000000227_0001_1_19_H_._HHH_b2_04280_0001_0000100004_0000002_0_0001 (protein)
chain: SSSSDKEARELIEALLRIAKQAYENGDEEAAEFLLWAAKHLAEELGDEELQREIEELEEEISSSS

The binders below were run against il10ra, Q13651 (assay: yeast display titration).

Apparent Kd, inactive:
B1 no binding seen
B2 no binding seen
B3 no binding seen
B4 no binding seen
B5 no binding seen
B6 no binding seen
B7 no binding seen
B8 no binding seen
B9 no binding seen
B10 no binding seen
B11 no binding seen
B12 no binding seen
B13 no binding seen
B14 no binding seen
B15 no binding seen
B16 no binding seen
B17 no binding seen
B18 no binding seen
B19 no binding seen
B20 no binding seen
B21 no binding seen
B22 no binding seen
B23 no binding seen
B24 no binding seen

Looked up one by one from the entries so far (2):
Apparent Kd, inactive:
B9 no binding seen
B5 no binding seen

Reference: article PMC10163288
